# Reference: PubChem BioAssay AID1487 (National Center for Advancing Translational Sciences (NCATS), 2009)
# This is one part of the list. The main result of the screen is listed elsewhere. These columns were measured beside it and carry no call. Most of these compounds were active or inconclusive in the main read-out, so they are no random draw. Potencies come from curve fits of mixed quality, noted in brackets.
# Assay: qHTS Assay for Modulators of Lamin A Splicing
# Details: HeLa LMNA splicing GFP/RFP minigene ratio, 48 h
# In short: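 Read-out is the ratio of GFP to DsRed2 object intensity, acquired by 488 nm laser-scanning cytometry on HeLa lamin A-EGFP minigene reporter cells. Compound incubation 48 hrs at 37 °C in Opti-MEM with 2% FBS; DMSO 0.5% final.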
# [1] = measured here: GFP splicing reporter channel
# [2] = measured here: RFP viability control channel
Structure (SMILES),AC50 [1],AC50 [2]
Cc1ccc(CCNC(=O)Cn2ncc3c([nH]c4ccccc43)c2=O)cc1,"5.01 µM [falling, partial curve, poor fit]","0.794 µM [falling, full curve]"
NC(=O)NC(=O)C[n+]1cccc(/C=N/O)c1,"10 µM [falling, partial curve, poor fit]","7.94 µM [falling, partial curve]"
O=C(CCS(=O)(=O)c1cccs1)Nc1ccc(C(=O)NC2CCN(Cc3ccccc3)CC2)cc1,"35.5 µM [falling, single point]",–
Cc1c(C(=O)N2CCc3ccccc3C2)oc2ccc(S(=O)(=O)N3CCCCCC3)cc12,"6.31 µM [rising, full curve]","10 µM [rising, partial curve]"
O=C(Nc1cccc(-c2nnc(-c3ccco3)o2)c1)C(c1ccccc1)c1ccccc1,"15.8 µM [rising, single point]",–
O=C(Nc1ccc(Oc2ccc(Cl)cc2)cc1)c1ncn[nH]1,–,"14.1 µM [rising, single point]"
Cc1cccc(NC(=O)c2cccc(NC(=O)Cc3cccs3)c2)c1,–,"7.08 µM [rising, full curve, poor fit]"
CC(C)(Oc1ccc(Cl)cc1)C(=O)Nc1cccc(-c2cn3cccnc3n2)c1,"0.891 µM [falling, full curve]",–
O=[N+]([O-])c1cc(Cl)cc(/C=N/Nc2nc3ccccc3s2)c1O,"35.5 µM [falling, single point]","6.31 µM [falling, single point]"
Cc1ccc(Nc2nc(-c3ccc(S(=O)(=O)N4CCOCC4)cc3)cs2)cc1Cl,"2.24 µM [rising, partial curve]","2.51 µM [rising, partial curve]"
Cc1cc(C)cc(NC(=O)c2ccc(NC(=O)C3C4CC5OC(=O)C3C5C4)cc2)c1 (centres undefined),"0.00355 µM [rising, full curve, poor fit]",–
CCOc1ccc(/C=C/C(=O)NCCc2ccc(OC)c(OC)c2)cc1,"0.0251 µM [rising, full curve, poor fit]","0.282 µM [rising, partial curve, poor fit]"
COc1cc(-c2cc3n(C)c(C)c(CCC(=O)Nc4ccc(F)cc4)c(=O)n3n2)cc(OC)c1OC,"2.82 µM [falling, full curve]","3.55 µM [falling, full curve, poor fit]"
COc1cccc(-c2cnc(NCc3cc(Cl)ccc3O)n2C)c1,–,"12.6 µM [rising, single point]"
COc1ccccc1/C=C/C(=O)OCC(=O)Nc1ccccc1Sc1ccccc1,–,"12.6 µM [rising, single point]"
CCN(C(=S)NC(=O)c1ccccc1Br)C1CCCCC1,"35.5 µM [rising, single point]","35.5 µM [rising, single point]"
CCOC(=O)c1[nH]c(C)c(CCC(=O)NCc2cccc(Cl)c2)c1C,"0.355 µM [rising, full curve, poor fit]",–
Cc1cc(C)cc(NC(=O)C2CCCC2)c1,"2 µM [falling, partial curve]","1.58 µM [falling, partial curve]"
Cc1ccc(C(=O)Nc2ccc(C)c(S(=O)(=O)Nc3ccccc3Cl)c2)s1,–,"0.891 µM [rising, partial curve]"
CC(C)CNS(=O)(=O)c1ccc(CCC(=O)NCC2CCCO2)cc1 (centres undefined),"0.794 µM [falling, full curve]","0.794 µM [falling, full curve, poor fit]"
Cc1cc(OC(=O)CNC(=O)OC(C)(C)C)c2c(C)cc(=O)oc2c1,"22.4 µM [rising, single point]",–
O=C(O)c1ccccc1C(=O)c1cccs1,–,"0.631 µM [falling, partial curve, poor fit]"
S=C(Nc1ccc(Cl)cc1)NC1CCN(Cc2ccccc2)CC1,"0.355 µM [rising, partial curve]","8.91 µM [rising, partial curve]"
CCC(=O)c1ccc(OCC(O)Cn2cnc3ccccc32)cc1 (centres undefined),"12.6 µM [rising, partial curve]","12.6 µM [rising, partial curve]"
COC(=O)c1ccc(C(=O)OC)c(-n2c(=O)c3ccccc3c3ccccc3c2=O)c1,"22.4 µM [falling, single point]",–
COC(=O)C1=C(N)Oc2cc(C)n(C)c(=O)c2C1c1ccc(Cl)cc1 (centres undefined),–,"35.5 µM [rising, single point]"
CC(C)OC(=O)c1c(-c2ccc(C(C)C)cc2)csc1NC(=O)C1CCCO1 (centres undefined),"14.1 µM [rising, partial curve]","17.8 µM [rising, partial curve]"

# Grouped by structure, the compounds so far with two or more sulfur atoms.
Structure (SMILES),AC50 [1],AC50 [2]
O=C(CCS(=O)(=O)c1cccs1)Nc1ccc(C(=O)NC2CCN(Cc3ccccc3)CC2)cc1,"35.5 µM [falling, single point]",–
Cc1ccc(Nc2nc(-c3ccc(S(=O)(=O)N4CCOCC4)cc3)cs2)cc1Cl,"2.24 µM [rising, partial curve]","2.51 µM [rising, partial curve]"
Cc1ccc(C(=O)Nc2ccc(C)c(S(=O)(=O)Nc3ccccc3Cl)c2)s1,–,"0.891 µM [rising, partial curve]"

# More compounds.

Structure (SMILES),AC50 [1],AC50 [2]
C=CCC1(N(C(C)=O)c2ccccc2C)CCCCC1,"8.91 µM [rising, partial curve, poor fit]",–
COc1ccccc1OCC(O)Cn1c(=N)n(Cc2ccccc2)c2ccccc21 (centres undefined),"25.1 µM [rising, partial curve, poor fit]","15.8 µM [rising, single point]"
CCOC(=O)C1=C(C)NC(=O)NC1c1ccc(OC)c(Cl)c1 (centres undefined),"11.2 µM [rising, single point]",–
CN(C)S(=O)(=O)c1cccc(NC(=O)c2cc(-c3cccs3)nc3ccccc23)c1,–,"14.1 µM [rising, single point]"
COC(=O)c1c(C)[nH]c(-c2csc(N)n2)c1C,–,"35.5 µM [rising, single point]"
O=C(NC1CCCC1)C(=O)N(Cc1cccnc1)C(C(=O)NCc1ccco1)c1ccccc1F (centres undefined),"17.8 µM [rising, single point]","15.8 µM [rising, single point]"
O=c1c(Cc2ccc(Cl)cc2Cl)c(O)ccn1CCCN1CCOCC1,"1.12 µM [falling, full curve]",–
COC(=O)/C(=C1/Oc2cc(C)oc(=O)c2S1)C(F)(F)F,"25.1 µM [falling, single point]","17.8 µM [falling, single point]"
CCN(CC)c1ccc(NC(=O)C2COc3ccc(OC)cc3C2)c(C)c1 (centres undefined),–,"2.51 µM [rising, partial curve]"
Cn1c(SCc2ccc(C(C)(C)C)cc2)nnc1C1COc2ccccc2O1 (centres undefined),–,"35.5 µM [falling, single point]"
O=c1c2c([nH]c3ccccc13)C(=C1CCCC1)CC2,"2.82 µM [rising, full curve, poor fit]","8.91 µM [rising, partial curve]"
O=C(Nc1ncc(Cc2cccc(C(F)(F)F)c2)s1)c1ccc(-c2cccc([N+](=O)[O-])c2)o1,"3.98 µM [rising, full curve]","6.31 µM [rising, full curve]"
O=C1CCC(C(=O)Nc2nnc(C3CC3)s2)=NN1,"0.00447 µM [falling, full curve, poor fit]",–
CCNc1nc(NCC)n2c(SCC(=O)Nc3ccccc3[N+](=O)[O-])nnc2n1,"5.01 µM [rising, full curve, poor fit]",–
CC(Nc1ccc(Br)cc1)C(=O)N/N=C/c1ccccc1OCc1ccccc1 (centres undefined),"22.4 µM [rising, single point]","28.2 µM [rising, single point]"
Cc1ccc(C)c(/C=C/C(=O)c2ccccc(=O)c2O)c1,–,"20 µM [rising, partial curve, poor fit]"
CC[C@H](C)[C@H](NC(=O)OCc1ccccc1)C(=O)Nc1ccc(NC(C)=O)cc1,"2.51 µM [falling, partial curve, poor fit]","2.82 µM [falling, full curve]"
Cc1cccc(C)c1NC(=S)NCCSc1ccc(Cl)cc1,"0.00447 µM [falling, full curve, poor fit]","0.00355 µM [falling, full curve, poor fit]"
Cc1cc(C)c(C#N)c(N2CCN(Cc3ccc4c(c3)OCO4)CC2)n1,"5.62 µM [rising, partial curve, poor fit]","11.2 µM [rising, partial curve]"
CC(=O)c1c(C)[nH]c(C(=O)OCC(=O)NCCc2ccc(F)cc2)c1C,"12.6 µM [rising, partial curve]","14.1 µM [rising, partial curve]"
C=CCn1c(SCc2csc(-c3ccc(Cl)cc3)n2)nnc1-c1ccccc1OC,–,"35.5 µM [rising, single point]"
Cc1c(C(=O)N(C)c2cccc(C(F)(F)F)c2)sc2nc3n(c(=O)c12)CCCCC3,–,"14.1 µM [rising, partial curve, poor fit]"
Cc1ccc2nc(SCCCCOc3ccccc3)[nH]c2c1,"35.5 µM [falling, single point]","25.1 µM [falling, single point]"
N#CNC(=Nc1cccc(F)c1)SCc1cccc(F)c1,"35.5 µM [rising, single point]","20 µM [rising, single point]"
COc1cc(CC(=O)NCCc2ccc(S(N)(=O)=O)cc2)cc(OC)c1OC,"3.98 µM [falling, partial curve]","11.2 µM [falling, partial curve]"
Cc1[nH]n(-c2ccccc2)c(=O)c1-c1ccc(Cl)cc1,–,"12.6 µM [rising, single point]"
